We go through three compounds from patent publication EP4847020A1, “USE OF SMALL MOLECULE COMPOUND IN TREATMENT OF CARDIOVASCULAR DISEASES” (dated 2026).

Chains of the proteins cited; added tags and fusions are not shown.
UniProt P05412, whole entry: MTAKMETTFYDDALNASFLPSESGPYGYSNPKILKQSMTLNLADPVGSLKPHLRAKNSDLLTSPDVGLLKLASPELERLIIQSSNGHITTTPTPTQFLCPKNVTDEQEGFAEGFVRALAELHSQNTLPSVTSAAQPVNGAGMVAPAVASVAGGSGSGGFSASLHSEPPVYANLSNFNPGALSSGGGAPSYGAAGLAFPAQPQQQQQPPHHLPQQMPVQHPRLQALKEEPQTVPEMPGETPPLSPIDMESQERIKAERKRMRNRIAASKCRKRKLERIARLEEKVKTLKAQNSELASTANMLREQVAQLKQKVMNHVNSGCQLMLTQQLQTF

Each structure is given as a SMILES string. The match of structure and compound is tentative.

Experiment [1] relates to HFpEF animal model. The experiment in a line: HFpEF mouse model (HFD + L-NAME), Example 2: therapeutic efficacy. The conditions noted are these: 12 mg/kg per administration, every other day; 3-week point after the administration. The method, then: The materials and reagents, animal experiment guidelines, and induction of heart failure with preserved ejection fraction model were the same as in Example 1.
The administration method was as follows: After successful induction of the animal model, the model treatment group was treated with the compounds of the present invention (e.g., compounds T3, T5, T8 to T16) or T-5224. The model control group was treated with the drug-free vehicle as a control. Mice fed normally with food and water throughout the induction period served as the negative control. After the mice were raised to 5 to 8 weeks of age, drug treatment was initiated following echocardiography and Doppler imaging confirmation of successful model establishment. For the treatment groups, T3, T5, T8 to T16, and T-5224 were administered at a dose of 12 mg/kg per administration based on mouse body weight. Specifically, the compounds were administered every other day. Each time, 0.54 mg of the compound was dissolved in 100 µL of 0.5% PVP solution (in practice, the drug solution was prepared based on the number of mice. For example, for 14 mice, 8 mg of the compound was dissolved in 1.5 mL of solution, and each mouse received 100 µL of the solution). Drug treatment was initiated after successful model induction. The control group received an equal volume of 0.5% PVP solution, with all other treatments being the same.

The next experiment concerns Jun. The experiment in a line: Jun expression in cardiomyocytes isolated from HFpEF model mice, quantitative PCR. The conditions noted are these: mouse cardiomyocytes, model treatment group compared with model control group; total dose 250 mg/kg. The method, then:
In order to isolate cardiomyocytes from the heart of adult mice, we used the classic perfusion method to isolate cardiomyocytes. Specifically, mice were injected with 100 µl of sodium heparin (1000 units in 50 ml) 20 minutes before being killed to prevent heart coagulation during the operation, which increased the difficulty of digestion. After that, the mice were anesthetized and killed, and the hearts were removed and transferred to a calcium-free solution for washing. Then, the Langendorff method was used for digestion. The heart was perfused with a calcium-free solution for 5 minutes using a Langendorff apparatus, and then digested with digestive enzyme solution (0.7 mg/ml type II collagenase and 0.7 mg/ml bovine serum albumin in a calcium-free solution) for about 30 minutes. The heart was constantly touched at about 20 minutes. […]
Total RNA was extracted from cells using GeneJet RNA purification kit (Thermo Scientific, K0732), and 0.1µg of total RNA was reverse transcribed using iScript TM cDNA synthesis kit (Bio-Rad, 1708890) to generate cDNA. qPCR was performed using iTaqUniversl SYBR Green supermix (1725121, Bio-Rad) on ABI Vii7 real-time system (Life Technologies, Q6), and b-Actin was used for standardized quantitative analysis. […]

The next experiment addresses c-Jun/AP-1 (Homo sapiens, UniProt P05412). In words: TransAM kit test of c-Jun transcription factor binding activity to DNA. As to conditions: remaining binding of c-Jun to dsDNA; lower binding activity = stronger inhibition; drugs tested at 500-31.25 µM, concentration of the tabulated value not stated. The method, then: The binding ability of DNA to transcription factor was tested using TransAM kits (Active Motif 46096). The transcription factor was c-Jun/AP-1. Drugs at final concentrations of 500 µM, 250 µM, 125 µM, 62.5 µM, and 31.25 µM, along with 1 µL of cell extract containing the transcription factor, were sequentially added to a 96-well plate pre-coated with double-stranded DNA oligonucleotides. After incubation for 1 hour, the plate was incubated with an antibody against the c-JUN transcription factor. The absorbance at 450 nm was measured, with absorbance at 655 nm used as background. The binding activity of the dsDNA sequence to the transcription factor was measured. Lower binding activity indicates stronger inhibitory activity of compound.

A further experiment concerns JUN transcription. The experiment in a line: Dual-luciferase reporter assay (pGL4.44[luc2P/AP1 RE/Hygro]) in PMA-stimulated 293T cells, inhibition of transcriptional activity. The conditions noted are these: for Luc: PMA 10 ng/ml, PMA alone = 100.0%. The method, then:
293T cells were passaged at a ratio of 1:3, plated, and incubated for 24 hours. The medium was replaced with antibiotic-free medium Opti-MEM (Gibco, 11058021). The 293T cells were transiently transfected with the luciferase reporter plasmid pGL4.44[luc2P/AP1 RE/Hygro] (Promega E411) and cultured for 24 hours. The cells were incubated for 1 hour in 1% PS/10% FBS/DMEM (Gibco, 11965092) containing the drugs at final concentrations of 50 µM, 25 µM, 12.5 µM, and 6.25 µM. Subsequently, the cells were stimulated with PMA (final concentration 10 ng/ml) (Sigma, 79346-5MG) and cultured for 34 hours. Lysates were measured using the Dual-Luciferase Reporter Assay System (Promega). Both the drugs and PMA were prepared as stock solutions in DMSO, diluted with culture medium, and added to the culture.

In experiment [2] the test system is HFpEF animal model. In words: HFpEF mouse model (HFD + L-NAME), Example 1: echocardiography/Doppler imaging and body weight. As to conditions: total dose 250 mg/kg, vs model control. The text has this: Male C57BL/6N wild-type mice aged 8 to 10 weeks were divided into three groups, namely, normal group (normal diet and drinking water), model control group (high-fat diet combined with administration of N-nitro-L-arginine methyl ester) and model treatment group (high-fat diet combined with administration of N-nitro-L-arginine methyl ester and treatment with T-5224). Among them, the model control group and the model treatment group were modeled by the following literature: Gabriele G. Schiattarella et al., Nitrosative stress drives heart failure with preserved ejection fraction, https://doi.org/10.1038/s41586-019-1100-z. Specifically, heart failure with preserved ejection fraction was induced by a high-fat diet (HFD) (60% kcal, from fat (lard)) and N-nitro-L-arginine methyl ester (abbreviated as L-NAME, 0.5 g/L in drinking water) to obtain the HFpEF animal model. […]
All the mice were raised under different conditions for five weeks and then began to undergo conventional echocardiography and Doppler imaging, which was performed every two weeks until the end of the 15th week. […] All parameters were measured at least 3 times, and the mean values were provided. […]

As for `O=C(O)CCc1cc(C(=O)c2ccc(OC3CCCC3)cc2O)ccc1OCc1ccc2c(O)noc2c1`, in the experiment with HFpEF animal model [1], the “inhibitory effect on disease progression” value was “had not yet shown any inhibitory effect on disease progression”. Also, the “expression of Jun” value in the experiment on Jun is reported as “down-regulated”. Also, on c-Jun/AP-1, the “DNA Binding Activity (%)” value came out at 10.0%. Besides, the Luc with JUN transcription (6.25 µM) came out at 92.3%; in the experiment on JUN transcription (12.5 µM), 75.7%; in the experiment with JUN transcription (25 µM) it was 102.6%; in the experiment with JUN transcription (50 µM), 75.5%. The diastolic function result with HFpEF animal model [2] (HFD + 0.5g/L L-NAME mice, every other day from 5th to 13th week, maintained until the 15th week) is given as “significantly improved”. In addition, the “mouse obesity (body weight)” value with HFpEF animal model [2] (HFD + L-NAME mice) is “improved”.
As to `COCn1oc2cc(COc3ccc(C(=O)c4ccc(OC5CCCC5)cc4O)cc3CCC(=O)OC)ccc2c1=O`, the “DNA Binding Activity (%)” value at c-Jun/AP-1 came out at 81.0%.
For `CCOC(=O)CCc1cc(C(=O)c2ccc(OC3CCCC3)cc2O)ccc1OCc1ccc2c(O)noc2c1`, the “inhibitory effect on disease progression” value with HFpEF animal model [1] is “significantly inhibited disease progression”. Moreover, at c-Jun/AP-1, the “DNA Binding Activity (%)” value was 4.5%. The Luc in the experiment with JUN transcription (6.25 µM) is recorded as 85.2%; in the experiment on JUN transcription (12.5 µM), 73.5%; in the experiment on JUN transcription (25 µM), 63.2%; with JUN transcription (50 µM), 11.6%. Besides, the “activity in inhibiting JUN transcription (in words)” value with JUN transcription (AP1 luciferase reporter) is recorded as “showed activity in inhibiting JUN transcription”.
